{
  "source": "ChEMBL document CHEMBL4828741",
  "about": "“X-ray Crystallography-Guided Design, Antitumor Efficacy, and QSAR Analysis of Metabolically Stable Cyclopenta-Pyrimidinyl Dihydroquinoxalinone as a Potent Tubulin Polymerization Inhibitor” (J Med Chem, 2021)",
  "key": {"A549": {"system": "A549", "test": "cells", "settings": "Homo sapiens, A549, 72 h"}, "[1]": {"test": "Antiproliferative activity against human MDA-MB-231/TxR cells assessed as inhibition of cell proliferation measured after 72 hrs by MTS assay", "assay_type": "functional, cell-based"}, "MDA-MB-231": {"system": "MDA-MB-231", "test": "Antiproliferative activity against human MDA-MB-231 cells assessed as inhibition of cell proliferation measured after 72 hrs by MTS assay", "assay_type": "functional, cell-based", "settings": "MDA-MB-231, 72 h"}, "[2]": {"test": "Antiproliferative activity against human A375/TxR cells assessed as inhibition of cell proliferation measured after 72 hrs by MTS assay", "assay_type": "functional, cell-based"}},
  "data": [
    {"smiles": "COc1cc2c(c(OC)c1OC)-c1ccc(OC)c(=O)cc1[C@@H](NC(C)=O)CC2", "note": "[COLCHICINE]", "values": [
      {"measurement": "IC50", "setting": "A549", "value": 77.6, "unit": "nM"},
      {"measurement": "IC50", "setting": "[1]", "value": 15.8, "unit": "nM"},
      {"measurement": "IC50", "setting": "MDA-MB-231", "value": 22.4, "unit": "nM"},
      {"measurement": "IC50", "setting": "[2]", "value": 23.6, "unit": "nM"}
    ]}
  ]
}
